Source: the supplement of paper PMC10849652
Some of the results follow.

Sequences of proteins named here, by UniProt entry; tags and fusion partners are left off. A change or cut given only in a name is not applied to a line headed by its entry.
UniProt P68036, whole entry, looked up: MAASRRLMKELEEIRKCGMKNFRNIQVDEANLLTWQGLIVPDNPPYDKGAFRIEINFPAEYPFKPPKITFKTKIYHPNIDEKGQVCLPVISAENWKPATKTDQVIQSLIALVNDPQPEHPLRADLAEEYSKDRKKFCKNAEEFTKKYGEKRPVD
UniProt P61081: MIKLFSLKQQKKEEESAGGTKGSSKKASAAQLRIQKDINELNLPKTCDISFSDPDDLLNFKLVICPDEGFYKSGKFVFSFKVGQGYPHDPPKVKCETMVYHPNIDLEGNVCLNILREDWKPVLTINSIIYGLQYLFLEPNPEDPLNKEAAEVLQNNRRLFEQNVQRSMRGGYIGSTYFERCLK
UniProt Q9UHD9, whole entry, looked up: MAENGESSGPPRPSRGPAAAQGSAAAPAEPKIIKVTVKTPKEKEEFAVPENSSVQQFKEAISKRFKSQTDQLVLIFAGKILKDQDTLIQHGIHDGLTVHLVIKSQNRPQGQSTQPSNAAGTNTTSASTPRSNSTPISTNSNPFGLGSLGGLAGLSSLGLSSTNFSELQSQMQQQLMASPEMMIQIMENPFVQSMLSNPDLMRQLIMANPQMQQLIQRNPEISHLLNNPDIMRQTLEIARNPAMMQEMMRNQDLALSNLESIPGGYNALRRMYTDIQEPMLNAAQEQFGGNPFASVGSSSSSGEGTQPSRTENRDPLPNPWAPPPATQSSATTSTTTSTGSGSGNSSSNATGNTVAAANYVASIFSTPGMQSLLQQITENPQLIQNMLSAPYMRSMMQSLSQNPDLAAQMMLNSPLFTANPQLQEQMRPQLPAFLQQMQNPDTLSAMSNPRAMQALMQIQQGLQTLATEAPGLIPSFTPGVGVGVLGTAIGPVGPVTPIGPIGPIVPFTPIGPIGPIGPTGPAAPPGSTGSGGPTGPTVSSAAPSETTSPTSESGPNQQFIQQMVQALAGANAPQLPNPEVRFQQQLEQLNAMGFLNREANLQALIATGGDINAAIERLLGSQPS
UniProt Q8TBC4: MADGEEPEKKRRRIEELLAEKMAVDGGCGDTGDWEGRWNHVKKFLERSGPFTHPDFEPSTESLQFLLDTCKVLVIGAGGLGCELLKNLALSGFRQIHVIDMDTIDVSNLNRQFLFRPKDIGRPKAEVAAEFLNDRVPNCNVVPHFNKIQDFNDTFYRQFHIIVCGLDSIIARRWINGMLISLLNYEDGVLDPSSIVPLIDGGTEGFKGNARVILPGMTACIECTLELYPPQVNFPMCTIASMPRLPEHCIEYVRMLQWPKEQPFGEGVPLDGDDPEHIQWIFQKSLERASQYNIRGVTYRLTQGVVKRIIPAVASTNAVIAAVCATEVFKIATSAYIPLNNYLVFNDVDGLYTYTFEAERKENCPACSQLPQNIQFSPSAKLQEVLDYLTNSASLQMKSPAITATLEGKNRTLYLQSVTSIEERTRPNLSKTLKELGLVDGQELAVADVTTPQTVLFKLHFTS
UniProt Q9BQE3, whole entry, looked up: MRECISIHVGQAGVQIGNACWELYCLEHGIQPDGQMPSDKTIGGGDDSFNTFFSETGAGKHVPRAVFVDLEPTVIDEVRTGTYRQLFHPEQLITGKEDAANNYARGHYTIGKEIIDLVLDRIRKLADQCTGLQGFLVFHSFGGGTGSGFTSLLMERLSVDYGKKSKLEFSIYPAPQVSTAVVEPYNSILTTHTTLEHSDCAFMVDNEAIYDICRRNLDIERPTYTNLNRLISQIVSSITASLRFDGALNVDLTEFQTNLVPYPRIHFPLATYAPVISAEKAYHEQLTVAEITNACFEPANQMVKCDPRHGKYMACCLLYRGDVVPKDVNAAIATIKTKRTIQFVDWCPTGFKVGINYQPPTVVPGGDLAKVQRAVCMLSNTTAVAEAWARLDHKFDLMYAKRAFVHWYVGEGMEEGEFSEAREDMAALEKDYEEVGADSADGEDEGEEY
UniProt Q9GZX9: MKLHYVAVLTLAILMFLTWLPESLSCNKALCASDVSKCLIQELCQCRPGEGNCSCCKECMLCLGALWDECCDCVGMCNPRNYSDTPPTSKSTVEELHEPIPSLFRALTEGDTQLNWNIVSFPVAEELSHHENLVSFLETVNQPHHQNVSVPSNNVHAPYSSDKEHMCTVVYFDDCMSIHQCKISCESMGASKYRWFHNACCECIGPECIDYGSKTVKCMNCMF
UniProt Q5VYS8: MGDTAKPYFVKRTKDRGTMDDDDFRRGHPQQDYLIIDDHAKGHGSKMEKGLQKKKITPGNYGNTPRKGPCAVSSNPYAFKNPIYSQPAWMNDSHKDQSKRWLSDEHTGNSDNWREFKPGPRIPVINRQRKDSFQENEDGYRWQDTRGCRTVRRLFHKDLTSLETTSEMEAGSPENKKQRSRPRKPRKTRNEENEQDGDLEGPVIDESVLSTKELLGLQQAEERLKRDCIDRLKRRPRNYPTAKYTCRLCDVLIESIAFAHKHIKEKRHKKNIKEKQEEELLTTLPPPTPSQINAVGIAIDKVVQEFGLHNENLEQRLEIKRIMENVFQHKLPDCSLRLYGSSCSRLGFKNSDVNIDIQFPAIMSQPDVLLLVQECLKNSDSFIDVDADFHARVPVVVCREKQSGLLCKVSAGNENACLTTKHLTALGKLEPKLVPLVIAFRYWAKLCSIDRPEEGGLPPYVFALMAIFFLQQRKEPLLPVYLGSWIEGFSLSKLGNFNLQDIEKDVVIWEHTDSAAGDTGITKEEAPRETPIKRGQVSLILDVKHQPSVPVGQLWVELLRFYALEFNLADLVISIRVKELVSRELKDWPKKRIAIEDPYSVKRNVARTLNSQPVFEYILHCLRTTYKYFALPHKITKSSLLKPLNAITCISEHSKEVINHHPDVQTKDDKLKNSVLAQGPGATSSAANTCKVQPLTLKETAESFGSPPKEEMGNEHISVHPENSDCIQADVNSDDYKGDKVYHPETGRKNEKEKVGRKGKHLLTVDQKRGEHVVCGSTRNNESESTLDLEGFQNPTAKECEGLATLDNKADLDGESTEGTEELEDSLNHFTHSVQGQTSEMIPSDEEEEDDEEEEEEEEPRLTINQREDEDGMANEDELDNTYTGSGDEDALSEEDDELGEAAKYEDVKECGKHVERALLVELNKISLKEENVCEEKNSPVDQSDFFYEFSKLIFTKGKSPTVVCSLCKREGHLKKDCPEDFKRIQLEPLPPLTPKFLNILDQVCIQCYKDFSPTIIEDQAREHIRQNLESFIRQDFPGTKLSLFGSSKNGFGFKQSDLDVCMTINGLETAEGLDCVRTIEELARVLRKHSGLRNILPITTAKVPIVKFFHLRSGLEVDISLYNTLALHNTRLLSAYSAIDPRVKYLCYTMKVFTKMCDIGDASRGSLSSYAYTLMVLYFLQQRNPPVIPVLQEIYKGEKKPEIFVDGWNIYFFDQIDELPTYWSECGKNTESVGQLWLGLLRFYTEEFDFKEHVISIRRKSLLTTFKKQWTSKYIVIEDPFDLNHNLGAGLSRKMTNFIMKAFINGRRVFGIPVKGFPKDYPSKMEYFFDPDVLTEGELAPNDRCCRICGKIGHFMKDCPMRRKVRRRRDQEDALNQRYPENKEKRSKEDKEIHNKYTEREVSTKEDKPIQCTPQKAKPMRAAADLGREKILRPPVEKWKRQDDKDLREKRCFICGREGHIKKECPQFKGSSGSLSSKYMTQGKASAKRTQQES
UniProt Q16881, whole entry, looked up: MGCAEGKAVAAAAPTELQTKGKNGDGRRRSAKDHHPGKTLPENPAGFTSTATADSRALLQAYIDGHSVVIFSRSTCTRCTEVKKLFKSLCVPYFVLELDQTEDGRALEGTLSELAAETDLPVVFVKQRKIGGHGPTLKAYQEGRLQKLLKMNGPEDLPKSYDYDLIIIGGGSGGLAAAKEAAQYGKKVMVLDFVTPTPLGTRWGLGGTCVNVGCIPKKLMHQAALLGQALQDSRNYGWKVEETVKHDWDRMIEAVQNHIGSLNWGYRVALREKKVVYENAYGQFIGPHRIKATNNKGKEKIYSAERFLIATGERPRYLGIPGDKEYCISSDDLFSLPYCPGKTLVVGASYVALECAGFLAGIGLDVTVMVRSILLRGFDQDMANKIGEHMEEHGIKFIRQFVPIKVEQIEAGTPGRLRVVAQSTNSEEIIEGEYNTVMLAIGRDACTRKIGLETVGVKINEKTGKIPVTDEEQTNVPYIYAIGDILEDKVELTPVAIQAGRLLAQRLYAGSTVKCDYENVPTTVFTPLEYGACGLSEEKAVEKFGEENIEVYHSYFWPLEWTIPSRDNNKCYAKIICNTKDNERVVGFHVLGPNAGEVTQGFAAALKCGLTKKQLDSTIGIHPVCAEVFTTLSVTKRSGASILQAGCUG
UniProt P04818: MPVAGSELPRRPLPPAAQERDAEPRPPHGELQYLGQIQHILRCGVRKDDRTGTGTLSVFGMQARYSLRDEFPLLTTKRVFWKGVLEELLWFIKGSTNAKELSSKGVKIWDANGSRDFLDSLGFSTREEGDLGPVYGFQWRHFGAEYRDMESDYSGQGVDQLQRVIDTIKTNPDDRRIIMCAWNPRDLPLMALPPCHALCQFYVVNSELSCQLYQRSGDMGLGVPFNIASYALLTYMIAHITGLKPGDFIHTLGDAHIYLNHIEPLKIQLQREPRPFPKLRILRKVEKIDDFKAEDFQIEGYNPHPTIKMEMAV
UniProt Q8IWV7: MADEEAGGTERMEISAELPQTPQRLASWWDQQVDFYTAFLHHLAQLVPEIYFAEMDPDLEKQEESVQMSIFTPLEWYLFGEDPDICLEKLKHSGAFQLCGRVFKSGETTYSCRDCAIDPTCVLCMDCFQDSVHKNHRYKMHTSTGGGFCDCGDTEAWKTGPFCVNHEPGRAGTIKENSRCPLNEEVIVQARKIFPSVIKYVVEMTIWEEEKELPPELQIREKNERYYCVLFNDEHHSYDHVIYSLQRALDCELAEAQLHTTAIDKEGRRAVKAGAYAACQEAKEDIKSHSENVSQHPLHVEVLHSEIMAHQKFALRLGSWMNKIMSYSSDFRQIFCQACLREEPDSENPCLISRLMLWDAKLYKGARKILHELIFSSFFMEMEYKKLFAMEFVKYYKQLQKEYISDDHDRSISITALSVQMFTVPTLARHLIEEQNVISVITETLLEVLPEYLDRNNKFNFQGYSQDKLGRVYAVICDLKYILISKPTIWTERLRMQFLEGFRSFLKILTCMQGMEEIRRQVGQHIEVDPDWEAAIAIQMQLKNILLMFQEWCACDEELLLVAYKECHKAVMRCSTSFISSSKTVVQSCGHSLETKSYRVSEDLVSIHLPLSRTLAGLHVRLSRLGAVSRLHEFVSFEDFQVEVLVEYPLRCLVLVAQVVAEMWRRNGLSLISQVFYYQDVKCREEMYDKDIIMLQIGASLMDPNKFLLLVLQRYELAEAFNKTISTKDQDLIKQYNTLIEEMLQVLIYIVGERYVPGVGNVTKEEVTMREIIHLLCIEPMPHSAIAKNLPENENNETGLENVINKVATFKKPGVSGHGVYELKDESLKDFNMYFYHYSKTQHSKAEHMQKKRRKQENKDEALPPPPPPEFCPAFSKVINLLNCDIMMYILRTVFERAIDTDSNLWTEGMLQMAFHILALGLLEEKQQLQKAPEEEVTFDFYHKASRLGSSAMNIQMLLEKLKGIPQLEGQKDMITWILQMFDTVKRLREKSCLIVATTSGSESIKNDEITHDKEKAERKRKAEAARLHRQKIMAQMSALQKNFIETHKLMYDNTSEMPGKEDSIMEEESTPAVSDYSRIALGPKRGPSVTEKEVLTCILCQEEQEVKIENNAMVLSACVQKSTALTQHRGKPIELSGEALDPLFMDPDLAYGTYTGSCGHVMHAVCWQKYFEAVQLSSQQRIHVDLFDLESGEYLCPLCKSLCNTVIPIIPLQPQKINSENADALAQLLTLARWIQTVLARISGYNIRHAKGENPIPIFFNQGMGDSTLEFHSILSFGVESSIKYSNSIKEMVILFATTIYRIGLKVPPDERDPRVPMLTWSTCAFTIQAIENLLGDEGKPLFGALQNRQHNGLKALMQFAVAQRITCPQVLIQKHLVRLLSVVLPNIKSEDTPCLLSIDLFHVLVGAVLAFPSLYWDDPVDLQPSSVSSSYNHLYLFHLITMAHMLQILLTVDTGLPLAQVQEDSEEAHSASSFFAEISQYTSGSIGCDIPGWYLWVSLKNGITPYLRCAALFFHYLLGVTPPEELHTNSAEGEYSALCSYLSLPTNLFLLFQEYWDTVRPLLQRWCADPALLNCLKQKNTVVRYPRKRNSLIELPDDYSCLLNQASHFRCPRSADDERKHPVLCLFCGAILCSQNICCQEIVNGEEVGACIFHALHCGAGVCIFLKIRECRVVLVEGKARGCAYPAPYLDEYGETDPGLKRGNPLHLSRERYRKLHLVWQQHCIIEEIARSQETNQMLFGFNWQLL

How the values were obtained:
Assay in all cases: log2 fold change, soluble protein after heating vs DMSO (PISA); higher = thermal stabilisation; K562 lysate, 10 uM; active = over 0.2 and 3.5 SD of the protein, either way, in both replicates (recomputed)
[1] = compound: C1=CC=C(C=C1)[C@H](COC2=CC3=C(C=C2)NC(=O)N3)NC(=O)C4=CC=CN(C4=O)CC5=CC(=C(C=C5)F)F
In short: (§1)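 K562 pellets were dounce-homogenised in PBS pH 7.4 with 1 mM MgCl2, and the crude extract at 1 mg/mL protein was treated with 10 μM compound for 30 min. Aliquots were heated for 3 min across 48°C-58°C, pooled, and brought to 0.5% NP-40 at 4°C; soluble protein was the supernatant after 21,000xg for 90 min. Soluble protein was quantified by TMTpro 16plex LC-MS/MS with channel sums equalised, and reported as log2 fold change in thermal stability against DMSO controls, with values from duplicates.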

[2] = compound: CC1=C(SC2=C1C(=N[C@H](C3=NN=C(N32)C)CC(=O)N)C4=CC=C(C=C4)Cl)C
In short: as §1

[3] = compound: CC1=C2C(=CC=C1)N=C(N(C2=O)C3=CC=CC=C3C)CN4C=NC5=C(N=CN=C54)N
In short: as §1

[4] = compound: c1ccc([C@@H]2C[C@H]2NC2CCNCC2)cc1
In short: as §1

[5] = compound: Cc1sc2c(c1C)C(c1ccc(Cl)cc1)=N[C@@H](CC(=O)OC(C)(C)C)c1nnc(C)n1-2
In short: as §1

Measured: log2 fold change

TUBB4A (UniProt M0QYM7)
inactive: [1] -0.207 | [2] -0.162 | [3] 0.016 | [4] -0.074

TWF2 (UniProt Q6IBS0)
inactive: [1] 0.023 | [2] 0.004 | [3] -0.023 | [5] -0.012 | [4] -0.027

TUBGCP2 isoform 4 (UniProt Q9BSJ2)
inactive: [1] 0.009 | [2] -0.015 | [3] 0.035 | [5] 0.018 | [4] 0.097

UBE2L3 isoform 3 (UniProt P68036)
inactive: [1] -0.013 | [2] 0.008 | [3] -0.014 | [5] -0.016 | [4] 0.026

2 consecutive entries from above, quoted:
TUBB4A (UniProt M0QYM7)
inactive: [1] -0.207 | [2] -0.162 | [3] 0.016 | [4] -0.074

TWF2 (UniProt Q6IBS0)
inactive: [1] 0.023 | [2] 0.004 | [3] -0.023 | [5] -0.012 | [4] -0.027

Following part:

UBE2M (UniProt P61081)
inactive: [1] -0.028 | [2] 0.016 | [3] -0.013 | [5] 0.03 | [4] -0.053

TYRO3 (UniProt Q06418)
inactive: [1] 0.032 | [2] 0.01 | [3] 0.394 | [4] 0.13

UBQLN2 (UniProt Q9UHD9)
inactive: [1] -0.113 | [2] -0.134 | [3] -0.026 | [5] -0.05 | [4] -0.014

UBA3 (UniProt Q8TBC4)
inactive: [1] -0.023 | [2] 0.027 | [3] 0.013 | [5] -0.019 | [4] 0

TUBA1C (UniProt Q9BQE3)
inactive: [1] 0.043 | [2] 0.03 | [3] 0.023 | [5] 0.003 | [4] -0.006

TWSG1 (UniProt Q9GZX9)
inactive: [1] 0.063 | [2] -0.095 | [3] -0.015 | [5] 0.086 | [4] 0.075

TUT7 (UniProt Q5VYS8)
inactive: [1] -0.032 | [2] 0.003 | [3] 0.05 | [5] -0.055 | [4] 0.128

TXNRD1 isoform 7 (UniProt Q16881)
inactive: [1] 0.106 | [2] -0.025 | [3] -0.021 | [5] -0.079 | [4] -0.231

TYMS (UniProt P04818)
inactive: [1] -0.005 | [2] 0.02 | [3] -0.005 | [5] 0.012 | [4] 0.014

UBR1 (UniProt Q8IWV7)
inactive: [1] -0.032 | [2] 0.002 | [3] -0.026 | [5] 0.026 | [4] 0
